Measured values reported in ChEMBL document CHEMBL5247657 (J Med Chem, 2023).

Test: in vitro
Conditions: human, Caco-2

Work on C=CC(=O)N1CCC([C@@H]2CCNc3c(C(N)=O)c(-c4cc(OC)c(C)c(OC)c4)nn32)CC1 yielded a Papp A→B at 2 h, 10 µM of 5.4 ×10⁻⁶ cm/s.
